{"source": "PubChem BioAssay AID250", "about": "(DTP/NCI, 2004)", "system": "BDF1 mice, L1210 leukemia sc", "experiment": "NCI In Vivo Anticancer Drug Screen. Data for tumor model L1210 Leukemia (subcutaneous) in B6D2F1 (BDF1) mice", "settings": "T/C endpoint: median survival time, higher T/C = longer survival", "outline": "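Tumors were transplanted into mice, the animals were treated with compound, survival or tumor size was then measured, and treated values were divided by vehicle-control values.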", "key": {"[1]": {"settings": "dose: 39.0 mg/kg/injection, schedule: Q01DX Z (sc), vehicle: methylcellulose (MC)"}, "[2]": {"settings": "dose: 8.4 mg/kg/injection, schedule: Q01DX Z (sc), vehicle: carboxymethylcellulose (CMC)"}}, "note": "The list shows only some results of the screen, not a fair sample: it gathers tests that were run many times, whatever their T/C, doses with no T/C, and many T/C values between a quarter and a half above the control. Further doses and runs are listed elsewhere. T/C: endpoint of the treated group in % of that of the vehicle group. For survival time, the PubChem record calls one and a half times the control and up active, and a quarter to a half above the control has no call in these data; cut-offs in other NCI protocols can differ. Schedule codes are those of the source, taken here to give the interval after Q, in days (D) or hours (H), and the number of doses after X. Some schedule codes hold Z or #, which are not explained here. Some entries hold several experiments; the values are given in rising order. Some T/C values are followed by the survivors on the day toxicity was checked, most often the fifth; where none is given, no animal had died by that day. Square brackets hold non-standard residues; d marks the D form. Peptide text beside a SMILES is read from it. Ac5c = NC1(C(=O)O)CCCC1"}
{"smiles": "Cn1cnc([N+](=O)[O-])c1Sc1nc(N)nc2nc[nH]c12", "values": [{"measurement": "T/C", "setting": "dose: 6.0 mg/kg/injection, schedule: Q01DX Z (sc), vehicle: methylcellulose (MC)", "value": "127 and 140 % of control"}, {"measurement": "T/C", "setting": "dose: 8.4 mg/kg/injection, schedule: Q01DX Z (sc), vehicle: methylcellulose (MC)", "value": "145 % of control [9 of 10 alive]"}, {"measurement": "T/C", "setting": "dose: 14.0 mg/kg/injection, schedule: Q01DX Z (sc), vehicle: methylcellulose (MC)", "value": "145 % of control"}, {"measurement": "T/C", "setting": "dose: 23.0 mg/kg/injection, schedule: Q01DX Z (oral), vehicle: methylcellulose (MC)", "value": "131 % of control"}, {"measurement": "T/C", "setting": "dose: 23.0 mg/kg/injection, schedule: Q01DX Z (sc), vehicle: methylcellulose (MC)", "value": "140 % of control [8 of 10 alive]"}, {"measurement": "T/C", "setting": "dose: 39.0 mg/kg/injection, schedule: Q01DX Z (oral), vehicle: methylcellulose (MC)", "value": "140 % of control [8 of 10 alive]"}, {"measurement": "T/C", "setting": "[1]", "value": "145 % of control"}, {"measurement": "T/C", "setting": "dose: 47.0 mg/kg/injection, schedule: Q01DX Z (sc), vehicle: methylcellulose (MC)", "value": "127 % of control"}, {"measurement": "T/C", "setting": "dose: 65.0 mg/kg/injection, schedule: Q01DX Z (sc), vehicle: methylcellulose (MC)", "value": "145 % of control"}, {"measurement": "T/C", "setting": "dose: 78.0 mg/kg/injection, schedule: Q01DX Z (sc), vehicle: methylcellulose (MC)", "value": "127 % of control"}, {"measurement": "T/C", "setting": "dose: 108.0 mg/kg/injection, schedule: Q01DX Z (sc), vehicle: methylcellulose (MC)", "value": "136 % of control"}, {"measurement": "T/C", "setting": "dose: 180.0 mg/kg/injection, schedule: Q01DX Z (oral), vehicle: methylcellulose (MC)", "value": "145 % of control"}, {"measurement": "T/C", "setting": "dose: 180.0 mg/kg/injection, schedule: Q01DX Z (sc), vehicle: methylcellulose (MC)", "value": "127 % of control"}, {"measurement": "T/C", "setting": "dose: 300.0 mg/kg/injection, schedule: Q01DX Z (oral), vehicle: methylcellulose (MC)", "value": "140 % of control"}, {"measurement": "T/C", "setting": "dose: 500.0 mg/kg/injection, schedule: Q01DX Z (oral), vehicle: methylcellulose (MC)", "value": "127 % of control"}]}
{"smiles": "c1ccc(CNc2ncnc3[nH]ncc23)cc1", "values": [{"measurement": "T/C", "setting": "dose: 38.9 mg/kg/injection, schedule: Q01DX Z (sc), vehicle: methylcellulose (MC)", "value": "140 % of control"}]}
{"smiles": "O=C(Nc1ccc(C2=NCCCN2)cc1)c1ccc(C(=O)Nc2ccc(C3=NCCCN3)cc2)cc1", "values": [{"measurement": "T/C", "setting": "[1]", "value": "140 % of control"}]}
{"smiles": "CC(=O)c1ccc(NC(=O)N(CCCl)N=O)cc1", "values": [{"measurement": "T/C", "setting": "[2]", "value": "127 % of control"}, {"measurement": "T/C", "setting": "dose: 14.0 mg/kg/injection, schedule: Q01DX Z (sc), vehicle: carboxymethylcellulose (CMC)", "value": "138 % of control"}, {"measurement": "T/C", "setting": "dose: 23.0 mg/kg/injection, schedule: Q01DX Z (sc), vehicle: carboxymethylcellulose (CMC)", "value": "144 % of control"}]}
{"smiles": "CCCOC1=C(N2CC2)C(=O)C(OCCC)=C(N2CC2)C1=O", "values": [{"measurement": "T/C", "setting": "dose: 23.0 mg/kg/injection, schedule: Q01DX Z (sc), vehicle: saline", "value": "125 % of control"}, {"measurement": "T/C", "setting": "dose: 39.0 mg/kg/injection, schedule: Q01DX Z (sc), vehicle: saline", "value": "135 % of control"}, {"measurement": "T/C", "setting": "dose: 65.0 mg/kg/injection, schedule: Q01DX Z (sc), vehicle: saline", "value": "130 % of control"}]}
{"smiles": "Cc1cccc2c(Nc3ccc(NS(C)(=O)=O)cc3)c3ccccc3nc12", "values": [{"measurement": "T/C", "setting": "dose: 40.0 mg/kg/injection, schedule: Q01DX009 (ip), vehicle: saline with Tween-80", "value": "125 % of control"}, {"measurement": "T/C", "setting": "dose: 80.0 mg/kg/injection, schedule: Q01DX009 (ip), vehicle: saline with Tween-80", "value": "125 % of control"}]}
{"smiles": "Nc1nc(N)c2nc(CNc3ccc(C(=O)NC(CCC(=O)O)C(=O)O)cc3)cnc2n1", "note": "(configuration not stated)", "values": [{"measurement": "T/C", "setting": "dose: 0.12 mg/kg/injection, schedule: Q01DX Z (sc), vehicle: other", "value": "140 % of control [8 of 10 alive]"}, {"measurement": "T/C", "setting": "dose: 0.18 mg/kg/injection, schedule: Q01DX Z (sc), vehicle: other", "value": "140 % of control"}, {"measurement": "T/C", "setting": "dose: 0.26 mg/kg/injection, schedule: Q01DX Z (sc), vehicle: other", "value": "135 % of control"}]}
{"smiles": "NCC(=O)NC1(C(=O)O)CCCC1", "note": "(H-Gly-[Ac5c]-OH)", "values": [{"measurement": "T/C", "setting": "dose: 432.0 mg/kg/injection, schedule: Q01DX Z (sc), vehicle: water", "value": "142 % of control"}, {"measurement": "T/C", "setting": "dose: 720.0 mg/kg/injection, schedule: Q01DX Z (sc), vehicle: water", "value": "136 % of control"}]}
{"smiles": "CCOC1=C(N2CC2)C(=O)C(OCC)=C(N2CC2)C1=O", "values": [{"measurement": "T/C", "setting": "dose: 5.0 mg/kg/injection, schedule: Q01DX Z (sc), vehicle: carboxymethylcellulose (CMC)", "value": "136 % of control"}, {"measurement": "T/C", "setting": "[2]", "value": "127 % of control"}]}
{"smiles": "O=c1cnn(C2OC(CO)C(O)C2O)c(=O)[nH]1", "note": "(configuration not stated)", "values": [{"measurement": "T/C", "setting": "dose: 75.0 mg/kg/injection, schedule: Q01DX009 (sc), vehicle: water", "value": "125 % of control"}, {"measurement": "T/C", "setting": "dose: 250.0 mg/kg/injection, schedule: Q01DX Z (sc), vehicle: other", "value": "127 % of control"}, {"measurement": "T/C", "setting": "dose: 500.0 mg/kg/injection, schedule: Q01DX Z (sc), vehicle: other", "value": "133 % of control"}, {"measurement": "T/C", "setting": "dose: 600.0 mg/kg/injection, schedule: Q01DX009 (ip), vehicle: water", "value": "128 % of control"}, {"measurement": "T/C", "setting": "dose: 600.0 mg/kg/injection, schedule: Q01DX009 (sc), vehicle: water", "value": "126 % of control"}]}
